Drawing on the supplement of paper PMC12819154, “High-throughput peptide-centric local stability assay extends protein–ligand identification to membrane proteins, tissues and bacteria” (Nature Structural & Molecular Biology, 2025), this text covers log2 fold change for 31 targets.

Protein sequences, listed by entry. Tags and fused reporters are not part of them. Lines headed by an entry give the natural chain unless they say otherwise; changes in a name come on top.
UniProt Q8VD12: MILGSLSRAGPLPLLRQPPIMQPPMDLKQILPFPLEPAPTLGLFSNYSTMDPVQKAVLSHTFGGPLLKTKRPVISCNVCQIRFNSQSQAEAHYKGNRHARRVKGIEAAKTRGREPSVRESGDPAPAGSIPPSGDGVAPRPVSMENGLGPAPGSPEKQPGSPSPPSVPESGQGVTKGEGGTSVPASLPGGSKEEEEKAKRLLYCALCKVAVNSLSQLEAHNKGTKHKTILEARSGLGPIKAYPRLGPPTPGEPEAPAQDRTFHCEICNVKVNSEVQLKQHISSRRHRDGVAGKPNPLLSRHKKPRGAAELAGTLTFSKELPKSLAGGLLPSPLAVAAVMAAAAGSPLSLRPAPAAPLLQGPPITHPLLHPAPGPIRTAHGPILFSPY
UniProt Q8VC70: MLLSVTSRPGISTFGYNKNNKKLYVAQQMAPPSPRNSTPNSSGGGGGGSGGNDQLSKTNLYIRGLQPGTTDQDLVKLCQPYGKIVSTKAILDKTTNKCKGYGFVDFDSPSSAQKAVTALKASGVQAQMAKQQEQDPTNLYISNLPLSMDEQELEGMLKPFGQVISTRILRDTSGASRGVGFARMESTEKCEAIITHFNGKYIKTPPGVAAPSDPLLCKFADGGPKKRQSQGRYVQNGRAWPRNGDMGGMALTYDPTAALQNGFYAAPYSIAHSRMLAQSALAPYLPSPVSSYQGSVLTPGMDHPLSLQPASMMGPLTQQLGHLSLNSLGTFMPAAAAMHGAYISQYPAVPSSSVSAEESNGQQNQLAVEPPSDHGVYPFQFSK
UniProt Q8VCM3: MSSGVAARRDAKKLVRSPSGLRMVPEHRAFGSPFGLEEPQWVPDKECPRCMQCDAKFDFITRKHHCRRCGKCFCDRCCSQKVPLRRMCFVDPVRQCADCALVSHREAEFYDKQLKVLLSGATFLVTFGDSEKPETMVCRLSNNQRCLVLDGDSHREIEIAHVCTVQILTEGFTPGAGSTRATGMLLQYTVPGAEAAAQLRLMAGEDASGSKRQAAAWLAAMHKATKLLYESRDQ
UniProt Q8VEB2: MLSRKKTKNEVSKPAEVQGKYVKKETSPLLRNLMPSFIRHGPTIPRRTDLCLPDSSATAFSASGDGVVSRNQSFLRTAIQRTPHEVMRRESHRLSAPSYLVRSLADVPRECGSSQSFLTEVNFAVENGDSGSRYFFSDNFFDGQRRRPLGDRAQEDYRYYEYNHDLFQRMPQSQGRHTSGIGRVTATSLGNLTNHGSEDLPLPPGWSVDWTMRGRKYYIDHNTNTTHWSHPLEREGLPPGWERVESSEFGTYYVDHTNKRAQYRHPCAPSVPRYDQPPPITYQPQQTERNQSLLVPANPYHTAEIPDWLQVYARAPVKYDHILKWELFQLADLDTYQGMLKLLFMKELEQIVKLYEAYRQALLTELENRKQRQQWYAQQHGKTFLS
UniProt Q8R4U7: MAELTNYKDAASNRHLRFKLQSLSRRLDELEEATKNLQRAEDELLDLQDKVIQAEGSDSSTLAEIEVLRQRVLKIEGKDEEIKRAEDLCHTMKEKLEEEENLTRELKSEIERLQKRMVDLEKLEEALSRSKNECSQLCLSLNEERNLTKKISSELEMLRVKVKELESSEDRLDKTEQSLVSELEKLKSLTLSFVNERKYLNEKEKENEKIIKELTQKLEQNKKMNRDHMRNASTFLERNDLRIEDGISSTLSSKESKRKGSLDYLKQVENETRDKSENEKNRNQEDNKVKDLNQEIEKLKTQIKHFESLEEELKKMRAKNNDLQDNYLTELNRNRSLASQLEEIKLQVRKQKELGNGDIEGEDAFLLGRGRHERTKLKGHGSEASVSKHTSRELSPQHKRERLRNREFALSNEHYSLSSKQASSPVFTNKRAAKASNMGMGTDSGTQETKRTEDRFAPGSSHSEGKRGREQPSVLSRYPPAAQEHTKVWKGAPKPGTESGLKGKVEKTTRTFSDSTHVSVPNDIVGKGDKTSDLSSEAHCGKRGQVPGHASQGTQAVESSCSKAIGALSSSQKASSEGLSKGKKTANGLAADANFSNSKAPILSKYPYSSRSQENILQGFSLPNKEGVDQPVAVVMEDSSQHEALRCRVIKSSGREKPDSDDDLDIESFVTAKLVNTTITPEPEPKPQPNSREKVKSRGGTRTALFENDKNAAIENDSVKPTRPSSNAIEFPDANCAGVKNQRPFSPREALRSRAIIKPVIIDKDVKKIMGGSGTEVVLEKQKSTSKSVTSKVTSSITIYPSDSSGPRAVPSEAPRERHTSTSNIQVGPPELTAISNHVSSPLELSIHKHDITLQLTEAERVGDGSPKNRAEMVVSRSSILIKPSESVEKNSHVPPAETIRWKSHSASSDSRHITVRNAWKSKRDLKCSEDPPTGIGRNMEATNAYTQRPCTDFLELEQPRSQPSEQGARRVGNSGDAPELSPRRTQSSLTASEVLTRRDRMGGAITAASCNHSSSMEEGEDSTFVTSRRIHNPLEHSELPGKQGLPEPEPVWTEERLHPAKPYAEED
UniProt Q8VCN5, whole entry: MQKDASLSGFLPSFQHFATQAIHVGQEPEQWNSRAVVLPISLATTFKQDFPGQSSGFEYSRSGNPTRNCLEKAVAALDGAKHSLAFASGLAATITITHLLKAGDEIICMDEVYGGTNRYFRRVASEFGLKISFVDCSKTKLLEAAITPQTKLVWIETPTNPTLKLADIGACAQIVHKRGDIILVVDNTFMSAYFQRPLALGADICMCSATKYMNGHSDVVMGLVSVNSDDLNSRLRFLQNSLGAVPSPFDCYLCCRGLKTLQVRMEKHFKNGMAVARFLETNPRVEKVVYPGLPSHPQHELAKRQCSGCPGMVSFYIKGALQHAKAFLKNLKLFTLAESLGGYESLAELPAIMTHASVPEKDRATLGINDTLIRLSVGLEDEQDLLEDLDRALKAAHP
UniProt Q8R322: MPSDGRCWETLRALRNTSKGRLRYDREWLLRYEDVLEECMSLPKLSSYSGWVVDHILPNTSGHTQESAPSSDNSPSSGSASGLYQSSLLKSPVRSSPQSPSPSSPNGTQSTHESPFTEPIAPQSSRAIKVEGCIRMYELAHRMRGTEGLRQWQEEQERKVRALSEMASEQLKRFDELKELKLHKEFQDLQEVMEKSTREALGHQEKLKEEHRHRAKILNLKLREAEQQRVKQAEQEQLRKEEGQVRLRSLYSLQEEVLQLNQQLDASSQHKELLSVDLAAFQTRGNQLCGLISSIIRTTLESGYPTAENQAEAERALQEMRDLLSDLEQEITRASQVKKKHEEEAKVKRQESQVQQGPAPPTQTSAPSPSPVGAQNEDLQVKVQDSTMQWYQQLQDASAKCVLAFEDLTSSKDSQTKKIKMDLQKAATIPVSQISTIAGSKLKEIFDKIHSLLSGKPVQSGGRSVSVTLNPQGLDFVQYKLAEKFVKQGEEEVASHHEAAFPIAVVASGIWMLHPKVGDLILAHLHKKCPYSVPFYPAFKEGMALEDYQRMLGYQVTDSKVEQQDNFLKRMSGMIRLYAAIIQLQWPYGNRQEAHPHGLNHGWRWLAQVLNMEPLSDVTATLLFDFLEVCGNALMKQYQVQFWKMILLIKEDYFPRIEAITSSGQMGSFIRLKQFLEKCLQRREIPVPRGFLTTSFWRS
UniProt Q8VDF3: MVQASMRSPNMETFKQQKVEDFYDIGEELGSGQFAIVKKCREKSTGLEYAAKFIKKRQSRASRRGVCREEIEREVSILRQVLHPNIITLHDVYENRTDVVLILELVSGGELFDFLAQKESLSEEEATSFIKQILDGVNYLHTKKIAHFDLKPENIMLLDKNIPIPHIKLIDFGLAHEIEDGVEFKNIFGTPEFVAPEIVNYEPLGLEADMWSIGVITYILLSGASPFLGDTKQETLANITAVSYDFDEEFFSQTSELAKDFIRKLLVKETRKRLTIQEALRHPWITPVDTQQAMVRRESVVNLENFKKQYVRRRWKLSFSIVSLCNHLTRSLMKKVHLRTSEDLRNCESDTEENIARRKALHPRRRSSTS
UniProt Q8VC28: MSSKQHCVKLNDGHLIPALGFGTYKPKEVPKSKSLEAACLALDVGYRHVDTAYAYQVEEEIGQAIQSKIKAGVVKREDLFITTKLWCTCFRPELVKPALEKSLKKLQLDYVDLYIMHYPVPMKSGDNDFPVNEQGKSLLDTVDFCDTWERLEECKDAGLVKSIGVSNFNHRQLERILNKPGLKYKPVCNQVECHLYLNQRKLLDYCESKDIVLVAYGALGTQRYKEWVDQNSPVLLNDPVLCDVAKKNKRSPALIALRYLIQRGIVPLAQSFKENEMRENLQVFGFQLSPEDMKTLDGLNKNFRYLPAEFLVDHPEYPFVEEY
UniProt Q8VCE1: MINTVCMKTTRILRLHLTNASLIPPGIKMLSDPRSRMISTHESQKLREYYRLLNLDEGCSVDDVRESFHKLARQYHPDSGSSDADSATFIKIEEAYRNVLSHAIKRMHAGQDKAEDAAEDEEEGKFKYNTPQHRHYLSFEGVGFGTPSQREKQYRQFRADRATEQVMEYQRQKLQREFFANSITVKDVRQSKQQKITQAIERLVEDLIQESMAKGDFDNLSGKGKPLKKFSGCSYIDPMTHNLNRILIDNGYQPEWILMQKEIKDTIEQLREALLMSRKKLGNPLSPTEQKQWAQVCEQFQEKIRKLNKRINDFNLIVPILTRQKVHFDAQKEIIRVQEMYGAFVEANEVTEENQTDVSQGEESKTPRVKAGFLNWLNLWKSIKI
UniProt Q8R4Z4: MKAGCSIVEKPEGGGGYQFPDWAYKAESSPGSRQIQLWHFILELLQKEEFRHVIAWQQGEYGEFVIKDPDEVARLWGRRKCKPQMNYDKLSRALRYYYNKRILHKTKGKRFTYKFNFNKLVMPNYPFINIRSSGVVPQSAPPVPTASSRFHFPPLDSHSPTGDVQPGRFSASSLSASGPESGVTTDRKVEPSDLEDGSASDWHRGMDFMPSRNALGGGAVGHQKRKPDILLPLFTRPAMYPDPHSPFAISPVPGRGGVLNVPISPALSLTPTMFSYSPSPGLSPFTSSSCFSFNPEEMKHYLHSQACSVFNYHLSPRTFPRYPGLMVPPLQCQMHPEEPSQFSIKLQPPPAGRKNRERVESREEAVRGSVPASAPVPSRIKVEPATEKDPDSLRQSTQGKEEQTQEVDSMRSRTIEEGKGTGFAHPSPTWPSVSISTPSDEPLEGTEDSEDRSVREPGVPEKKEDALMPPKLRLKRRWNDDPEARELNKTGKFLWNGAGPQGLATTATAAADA
UniProt Q8R3Q6: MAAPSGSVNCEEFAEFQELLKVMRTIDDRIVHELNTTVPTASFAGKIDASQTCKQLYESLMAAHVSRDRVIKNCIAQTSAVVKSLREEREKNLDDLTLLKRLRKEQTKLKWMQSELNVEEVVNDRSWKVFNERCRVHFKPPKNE
UniProt Q8VE22: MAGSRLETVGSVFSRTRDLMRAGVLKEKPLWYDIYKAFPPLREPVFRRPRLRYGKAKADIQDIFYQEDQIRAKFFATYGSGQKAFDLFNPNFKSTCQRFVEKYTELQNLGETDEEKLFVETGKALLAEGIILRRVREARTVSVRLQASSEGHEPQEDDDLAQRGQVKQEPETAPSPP
UniProt Q8VCX1: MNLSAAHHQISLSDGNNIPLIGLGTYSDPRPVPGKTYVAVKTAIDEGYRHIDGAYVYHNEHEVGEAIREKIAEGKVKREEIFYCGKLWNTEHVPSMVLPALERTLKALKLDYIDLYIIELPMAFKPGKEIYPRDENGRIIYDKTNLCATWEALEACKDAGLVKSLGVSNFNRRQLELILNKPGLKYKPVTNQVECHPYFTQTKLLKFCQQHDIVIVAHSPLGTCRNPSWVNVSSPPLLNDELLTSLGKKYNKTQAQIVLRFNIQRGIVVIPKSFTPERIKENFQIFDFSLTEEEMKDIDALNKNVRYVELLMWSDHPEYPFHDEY
UniProt Q8VC04: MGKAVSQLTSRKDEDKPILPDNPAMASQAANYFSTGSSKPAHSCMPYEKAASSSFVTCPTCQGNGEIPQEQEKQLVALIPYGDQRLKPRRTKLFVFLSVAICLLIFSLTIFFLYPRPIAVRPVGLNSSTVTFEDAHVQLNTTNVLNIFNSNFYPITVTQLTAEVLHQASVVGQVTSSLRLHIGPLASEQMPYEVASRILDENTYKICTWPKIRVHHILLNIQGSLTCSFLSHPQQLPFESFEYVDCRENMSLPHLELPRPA
UniProt Q8R3Q0: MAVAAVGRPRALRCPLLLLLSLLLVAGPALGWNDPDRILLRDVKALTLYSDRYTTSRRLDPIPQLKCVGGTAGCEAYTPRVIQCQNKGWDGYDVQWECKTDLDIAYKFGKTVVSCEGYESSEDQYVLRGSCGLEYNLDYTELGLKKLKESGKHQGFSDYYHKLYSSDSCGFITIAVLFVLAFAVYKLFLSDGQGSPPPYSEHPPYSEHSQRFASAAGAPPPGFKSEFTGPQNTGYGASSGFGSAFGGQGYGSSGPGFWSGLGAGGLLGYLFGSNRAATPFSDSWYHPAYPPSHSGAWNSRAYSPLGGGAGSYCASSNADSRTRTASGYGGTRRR

Compound in the experiment: CN[C@@H]1C[C@H]2O[C@@](C)([C@@H]1OC)n1c3ccccc3c3c4c(c5c6ccccc6n2c5c31)C(=O)NC4 [staurosporine]
The experiment is described as follows: log2 fold change of tryptic peptide abundance, ligand vs vehicle (limited proteolysis) (log2 ratio); higher = more trypsin-susceptible (destabilized). The following applies: ligand concentration: 20 uM; sample: mouse liver crude lysate; replicate design: treated separately.

This is one part of the list. Most entries show no effect beyond the scatter of the controls.

Regarding “UniProt Q8VD12 (peptide sequence: FNSQSQAEAHYK, peptide start residue: 83)”, the log2 fold change amounted to 0.496. With “UniProt Q8VCC8 (peptide sequence: YTVMSGTPEK, peptide start residue: 498)”, the log2 fold change was 0.0387. Turning to “UniProt Q8VC70 (peptide sequence: YIKTPPGVAAPSDPLLCK, peptide start residue: 201)”, the log2 fold change was 0.198. Regarding “UniProt Q8VCH0 (peptide sequence: ARDCLIPMGITSENVAER, peptide start residue: 174)”, the log2 fold change was -0.101. Regarding “UniProt Q8VC30 (peptide sequence: NYTGDRLNFGLAMEQAK, peptide start residue: 110)”, the log2 fold change is -0.119. Regarding “UniProt Q8VCM3 (peptide sequence: RMCFVDPVR, peptide start residue: 86)”, the log2 fold change was found to be 0.246.

Consider “UniProt Q8R5H6 (peptide sequence: NLDRPHEPEKVPR, peptide start residue: 183)”, for which the log2 fold change was -0.169. Then “UniProt Q8VC42 (peptide sequence: SGGATGVVVK, peptide start residue: 40)”, with -0.883; and “UniProt Q8VEB2 (peptide sequence: QQWYAQQHGK, peptide start residue: 373)”, with -0.317; and “UniProt Q8R4U7 (peptide sequence: NASTFLER, peptide start residue: 231)”, with -0.2.

As for “UniProt Q8VCN5 (peptide sequence: LLEAAITPQTK, peptide start residue: 141)”, the log2 fold change was -0.14. The same measure for “UniProt Q8VDP3 (peptide sequence: ELEAEGTKLELALRK, peptide start residue: 931)”: -0.329. As for “UniProt Q8R322 (peptide sequence: VGDLILAHLHKK, peptide start residue: 517)”, the log2 fold change came out at 0.506. As to “UniProt Q8VDF3 (peptide sequence: ESVVNLENFKK, peptide start residue: 298)”, the log2 fold change came out at 0.175. Then “UniProt Q8VE94 (peptide sequence: ETEATWTK, peptide start residue: 153)”, with -0.174. The same measure for “UniProt Q8VC66 (peptide sequence: SLPASPSTSDFR, peptide start residue: 537)”: 0.296; for “UniProt Q8VC28 (peptide sequence: LNDGHLIPALGFGTYKPK, peptide start residue: 10)”: -0.253; for “UniProt Q8VCE1 (peptide sequence: KKLGNPLSPTEQK, peptide start residue: 279)”: -0.607. Regarding “UniProt Q8R3B7 (peptide sequence: KLEEEEAEVK, peptide start residue: 150)”, the log2 fold change came to 0.787. In the case of “UniProt Q8R4Z4 (peptide sequence: KVEPSDLEDGSASDWHR, peptide start residue: 188)”, the log2 fold change stood at 0.728. The same measure for “UniProt Q8VEF1 (peptide sequence: LLINSVFHMGAER, peptide start residue: 372)”: 0.439; for “UniProt Q8R3Q6 (peptide sequence: NLDDLTLLKR, peptide start residue: 92)”: 0.23. The same measure for “UniProt Q8R2U7 (peptide sequence: KAAQYFYQNR, peptide start residue: 332)”: -0.225; for “UniProt Q8VDS7 (peptide sequence: ALEEETNER, peptide start residue: 89)”: 0.151. On to “UniProt Q8VE22 (peptide sequence: FFATYGSGQK, peptide start residue: 74)”, for which the log2 fold change was -0.0808.

On to “UniProt Q8VCX1 (peptide sequence: EEIFYCGK, peptide start residue: 79)”, for which the log2 fold change was -0.333. The same measure for “UniProt Q8VC04 (peptide sequence: AVSQLTSR, peptide start residue: 4)”: 0.054; for “UniProt Q8VCQ3 (peptide sequence: LLAAGKYEEAISCHRK, peptide start residue: 21)”: -0.221; for “UniProt Q8R3Q0 (peptide sequence: TASGYGGTR, peptide start residue: 324)”: 0.0264. The same measure for “UniProt Q8VC31 (peptide sequence: NWGGSDFER, peptide start residue: 220)”: -0.127. Regarding “UniProt Q8VD04 (peptide sequence: QLKEGVPGAAGAHVDGELLR, peptide start residue: 116)”, the log2 fold change was 0.678.
